61 compounds from PubChem BioAssay AID445 (National Center for Advancing Translational Sciences (NCATS), 2006) can be followed below.

Where “and” joins values, the source holds several entries; their conditions need not be identical. Identical values can stand only once. The list shows a part of the results. These are further read-outs of the screen, such as a control signal, another cell line or another target. No call is given for them. The list favours compounds with an active or inconclusive main result. Potencies come from curve fits of mixed quality, noted in brackets.

For orientation: AC50 means the concentration at which the activity in the assay is half-maximal.

The experiment in a line: IkB Signaling. The note with it: ABC-DLBCL IkBa-CBG/CBR dual luciferase ratio (green luciferase fused to IkBa over red control in OCI-Ly3 lymphoma cells), 4 h. In short, it runs like this: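 Curves were fitted separately to fusion (green), unfused (red) and ratio luminescence, then classed by r2, magnitude and activity. Cells: OCI-Ly3, 4 h compound plus doxycycline at 37C; 10 uM MG-132 defined full response.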
Where [1] appears, read: measured here: control luc red channel unless noted.
Where [2] appears, read: measured here: IkB-luc green channel.
Setting [3] is: measured here: control luc red channel.

As for `Brc1ccc(CNCCCSc2nnnn2-c2ccccc2)cc1`, the AC50 under setting [1] was 0.794 µM [falling, full curve, poor fit].
Take `CCOC(=O)Cc1csc(NC(=O)CSc2ncnc3c2cnn3-c2ccc(OC)cc2)n1`: the half-maximal activity concentration (AC50) was 6.31 µM [falling, partial curve] under setting [2] and 3.16 µM [falling, full curve] under setting [3].
Take `CC(=O)Nc1ccc(C)cc1-c1nc2ccccc2n(CC(=O)c2ccc(Cl)cc2)c1=O`: under setting [1], the half-maximal activity concentration (AC50) is 6.31 µM [rising, partial curve, poor fit].
Still for that read-out and setting: next, `COc1cccc2cc(-c3cn4c(n3)sc3cc(F)ccc34)c(=O)oc12`: 0.501 µM [falling, full curve].
Consider `CC(=O)N(Cc1cccnc1)c1nc2ccc(F)cc2s1`, for which the AC50 under setting [1] was 1 µM [rising, full curve, poor fit].
The same measure, in the same setting: in the case of `COc1cccc(-c2nc(Cc3ccc(OC)c(OC)c3)no2)c1` it was 15.8 µM [falling, single point]; in that of `COc1ccc(C(=O)NCC(c2cccs2)S(=O)(=O)c2ccc(F)c(C)c2)cc1` (stereo not drawn), 39.8 µM [falling, single point]; in that of `CCOc1ccc(-c2noc(CSc3nnc(-c4ccccc4)n3-c3ccccc3)n2)cc1`, 0.0316 µM [falling, full curve].
In the case of `CC[C@@H]1CN2CCc3cc(OC)c(OC)cc3[C@H]2C[C@@H]1C[C@H]1NCCc2cc(OC)c(OC)cc21`, under setting [1], the concentration at half-maximal activity (AC50) is 316 nM [falling, full curve] and 158 nM [falling, full curve].
On the same count and under the same terms, next, `CCC(CC)C(=O)Nc1ccc(C(=O)OCc2cc(=O)n3nc(C4CC4)sc3n2)cc1`: 25.1 µM [falling, single point]; `O=C(NCc1ccccc1Cl)c1cccn1-c1nnc(N2CCCCC2)s1`: 20 µM [falling, partial curve, poor fit]; `NCCCc1ccc2oc3ccccc3c2c1`: 0.631 µM [falling, full curve].
Turning to `O=C(CSc1nnc(Cn2nnc(-c3ccccc3)n2)n1-c1ccccc1)Nc1ccc(F)cc1`, the AC50 under setting [1] was 5.01 µM [falling, partial curve].
As for `C#CCn1c(/C=C/c2ccc(Cl)cc2)nc2ccccc21`, the AC50 under setting [1] is 31.6 µM [falling, single point].
Consider `Brc1c(OCCOCCn2cncn2)ccc2ccccc12`, for which, under setting [1], the AC50 was 6.31 µM [rising, single point] [measured here: IkB-luc green channel].
In the case of `CCN(c1ccc(OC)cc1)S(=O)(=O)c1nnc(NC(=O)COc2ccc(F)cc2)s1`, the AC50 under setting [1] was 15.8 µM [falling, single point].
Regarding `CC(C)CC(=O)NCC(c1ccc2c(c1)OCO2)N1CCN(c2ccccc2F)CC1` (stereo not drawn), under setting [1], the half-maximal activity concentration (AC50) was 0.0126 µM [falling, full curve, poor fit].
On the same count and under the same terms, next, `COC(=O)[C@H]1[C@@H]2C[C@H]3c4[nH]c5ccccc5c4CCN3C[C@@H]2CC[C@@H]1O`: 31.6 µM [falling, partial curve].
For the compound `N#C/C(=C(/O)COC(=O)c1ccc2c(c1)OCCO2)c1nc2ccccc2[nH]1`, the AC50 under setting [2] is 31.6 µM [rising, single point] and the half-maximal activity concentration (AC50) under setting [3] is 15.8 µM [falling, partial curve].
Regarding `Cc1oc2c(cc(NS(=O)(=O)c3ccc(Br)cc3)c3ccccc32)c1C(=O)OCc1ccccc1`, the concentration at half-maximal activity (AC50) under setting [1] is 3.98 µM [falling, partial curve].
Take `CN(C)c1ccc(C(=O)Nc2sc(Nc3ccccc3)nc2C(N)=O)cc1`: under setting [1], the AC50 was 0.794 µM [falling, full curve].
With `COc1ccc(Cn2c(CCC(=O)Nc3ccc(Br)c(C)c3)nc3cccnc32)cc1`, the half-maximal activity concentration (AC50) under setting [1] was 15.8 µM [falling, partial curve].
With `COc1ccc2[nH]cc(CCNc3nc(-c4cccc(C#N)c4)nc4ccccc34)c2c1`, the concentration at half-maximal activity (AC50) under setting [1] is 5.01 µM [falling, single point] [measured here: IkB-luc green channel].
In the case of `CC1Cc2cc(S(=O)(=O)CCC(=O)Nc3cccc(F)c3)ccc2N1C(=O)C1CC1` (stereo not drawn), under setting [1], the concentration at half-maximal activity (AC50) was 1 µM [rising, partial curve].
In the case of `CCOC(=O)C1CCC(CN(Cc2ccc(OC)cc2)S(=O)(=O)c2ccc(C)cc2)CC1` (stereo not drawn), the concentration at half-maximal activity (AC50) under setting [1] is 20 µM [falling, single point].
On to `O=C(Nc1cc(Cl)cc(Cl)c1)c1ccc(F)c(S(=O)(=O)N2CCCC2)c1`, for which the AC50 under setting [1] was 20 µM [falling, partial curve].
Turning to `COC(=O)c1ccccc1NC(=O)c1cc2ccccn2n1`, the AC50 under setting [1] is 15.8 µM [falling, partial curve].
As for `O=C(Cn1ncn2c(cc3cc(F)ccc32)c1=O)NC1CCCCC1`, the AC50 under setting [1] was 3.16 µM [falling, partial curve].
On to `COc1ccc(Nc2ncnc3scc(-c4ccc(F)cc4)c23)cc1`, for which the AC50 under setting [1] is 39.8 µM [falling, single point].
For the compound `COc1ccc(NC(=O)c2sc3nc(C)c(C(=O)Nc4ccc(C)cc4C)c(-c4sccc4C)c3c2N)cc1`, the AC50 under setting [1] was 20 µM [falling, partial curve, poor fit].
Consider `Cn1cccc1Cc1nnc(SCC(=O)Nc2cccc(Cl)c2)n1-c1ccc(F)cc1`, for which, under setting [1], the AC50 is 12.6 µM [falling, partial curve].
Turning to `CCc1c(CN2CCN(c3ccc(F)cc3)CC2)csc1C`, the AC50 under setting [1] was 31.6 µM [falling, single point].
Still for that read-out and setting: in the case of `O=S(=O)(c1ccccc1F)N(Cc1ccco1)Cc1nnc(-c2ccccc2Br)o1` it was 15.8 µM [falling, partial curve].
In the case of `COc1ccccc1-c1cc(C(F)(F)F)nc(S(=O)(=O)CCCC(=O)Nc2ccccc2F)n1`, the AC50 under setting [1] is 2.51 µM [falling, full curve].
`O=C(COc1ccc(Cl)cc1)NCCc1csc(-c2ccc(C(F)(F)F)cc2)n1`: the AC50 under setting [1] is 39.8 µM [falling, single point].
For `COc1cc2c(cc1NC(=O)COc1cc(C)cc(C)c1)oc1ccccc12`, the concentration at half-maximal activity (AC50) under setting [1] was 10 µM [falling, partial curve].
For the compound `CCOC(=O)N1CCC(NC(=O)c2cnn(-c3ccc(C)cc3)c2-n2cccc2)CC1`, the AC50 under setting [1] was 5.01 µM [rising, partial curve].
On the same count and under the same terms, in the case of `O=C(NCc1ccccn1)C1CCCN(S(=O)(=O)c2ccc(Br)cc2)C1` (stereo not drawn) it was 15.8 µM [falling, partial curve]; in that of `COc1ccccc1-n1cnnc1SCC(=O)Nc1ncc(Cl)cc1Cl`, 12.6 µM [falling, partial curve].
Regarding `COc1ccc(NC(=O)c2cnc(N3CCOCC3)c3ccccc23)cc1OC`, under setting [1], the half-maximal activity concentration (AC50) is 0.00631 µM [falling, full curve, poor fit].
For `COc1cccc(CCNC(=O)c2ccc(Cn3c(SCc4ccccc4)nc4cccnc43)cc2)c1`, under setting [1], the AC50 is 10 µM [falling, partial curve].
As for `Cc1cccn2c(=O)c3cc(C(=O)NC(C)C)n(C)c3nc12`, the concentration at half-maximal activity (AC50) under setting [1] is 39.8 µM [falling, single point].
Regarding `COc1cccc(N2CCN(CC(=O)Nc3nc4c(s3)CC(C)CC4)CC2)c1` (stereo not drawn), under setting [1], the AC50 was 15.8 µM [falling, partial curve].
For the compound `COc1ccc(-c2nc3ccccc3n2Cc2ccc(C(C)C)cc2)cc1`, the AC50 under setting [1] was 25.1 µM [falling, partial curve].
Same read-out and setting: next, `CCOc1ccc(NC(=O)Cn2cc(C(=O)c3ccc(F)cc3)c(=O)c3cc4c(cc32)OCO4)cc1`: 39.8 µM [rising, single point] [measured here: IkB-luc green channel].
With `Cc1nn2c(=O)cc(COC(=O)c3ccc(NC(=O)CCc4ccccc4)cc3)nc2s1`, the AC50 under setting [1] was 10 µM [falling, single point].
As to `Cc1cccc(OCCn2c(SCC(N)=O)nc3ccccc32)c1`, under setting [1], the AC50 was 6.31 µM [rising, partial curve].
The same measure, in the same setting: in the case of `CCc1noc(-c2ccc(N3CCC(C)CC3)c([N+](=O)[O-])c2)n1` it was 0.316 µM [rising, full curve].
With `CCC(Sc1nc2cc3c(cc2c(=O)n1CCCCCC(=O)NCc1ccc2c(c1)OCO2)OCO3)C(=O)NCCCOC` (stereo not drawn), the half-maximal activity concentration (AC50) under setting [1] was 39.8 µM [falling, single point].
On to `COc1ccc(N(C(=O)Nc2ccc(Cl)cc2)C2=NCCC2)cc1`, for which the AC50 under setting [1] was 12.6 µM [falling, partial curve].
As for `Cc1c(Cl)cccc1NC(=O)c1cc(-c2cccc(Cl)c2)on1`, the AC50 under setting [1] was 3.16 µM [falling, partial curve, poor fit].
On the same count and under the same terms, in the case of `Cc1ccc(-c2cc(C(=O)NCCCN3CCOCC3)no2)cc1` it was 15.8 µM [falling, partial curve]; in that of `O=C(Nc1cccc(Br)c1)Nc1nc2c(s1)CCCCCC2`, 0.00631 µM [rising, full curve, poor fit].
Consider `COc1cc2c(C(=O)N3CCN(c4cccc(Cl)c4)CC3)cn(C)c(=O)c2cc1OC`, for which the AC50 under setting [1] was 15.8 µM [falling, partial curve].
As to `CCc1ccc(CNC(=O)CN2C(=O)CSc3ccc(S(=O)(=O)N4CCOCC4)cc32)cc1`, under setting [1], the concentration at half-maximal activity (AC50) was 39.8 µM [falling, single point].
In the case of `COc1cccc(C(=O)N(Cc2ccc(N(C)C)cc2)Cc2ccco2)c1`, the concentration at half-maximal activity (AC50) under setting [1] was 31.6 µM [falling, single point].
With `CCc1ccc(S(=O)(=O)NCc2cccn2Cc2cccc(C)c2)cc1`, the AC50 under setting [1] was 15.8 µM [falling, partial curve].
Turning to `COc1cc(OC)c(NC(=O)CCc2nc(-c3cccs3)no2)cc1Cl`, the AC50 under setting [1] was 12.6 µM [falling, partial curve].
In the case of `COc1cc(C(=O)Nc2sc3c(c2C(N)=O)CCC(C)C3)cc(OC)c1OC` (stereo not drawn), under setting [1], the concentration at half-maximal activity (AC50) is 10 µM [falling, partial curve].
`COc1ccc(CCNC(=O)CSc2cc(=O)n(C)c3ccccc23)cc1OC`: the AC50 under setting [1] is 3.16 µM [rising, partial curve, poor fit].
With `O=c1c(O)c(-c2ccc(O)cc2)oc2ccc(O)cc12`, the AC50 under setting [1] was 7.94 µM [falling, single point].
